In the supplement of paper PMC4862054:
Most values lie at the level of the controls, where differences are scatter.

Key:
Assay in all cases: normalised response (% of control), CellTox Green; higher = less cell death (100 = DMSO, 0 = benzethonium chloride kill control)
Conditions in all cases: incubation time: 72 h
CAL-148 = tested on: CAL-148
Protocol: (§1)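 DSRT, 72 h incubation, CellTox Green / CellTiter-Glo readout. Signal is normalised to DMSO and benzethonium chloride controls. Value is the normalised response at dose 2.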

CAL-120 = tested on: CAL-120
Protocol: as §1

BT-474 = tested on: BT-474
Protocol: as §1

MCF-10A = tested on: MCF-10A
Protocol: as §1

MDA-MB-436 = tested on: MDA-MB-436
Protocol: as §1

HCC1143 = tested on: HCC1143
Protocol: as §1

Hs578T = tested on: Hs578T
Protocol: as §1

MDA-MB-231 = tested on: MDA-MB-231
Protocol: as §1

HCC1937 = tested on: HCC1937
Protocol: as §1

HDQ-P1 = tested on: HDQ-P1
Protocol: as §1

CAL-51 = tested on: CAL-51
Protocol: as §1

MDA-MB-468 = tested on: MDA-MB-468
Protocol: as §1

DU-4475 = tested on: DU-4475
Protocol: as §1

MFM-223 = tested on: MFM-223
Protocol: as §1

HCC1599 = tested on: HCC1599
Protocol: as §1

CAL-85-1 = tested on: CAL-85-1
Protocol: as §1

MDA-MB-453 = tested on: MDA-MB-453
Protocol: as §1

BT-549 = tested on: BT-549
Protocol: as §1

Row | SMILES | normalised response (CAL-148) | normalised response (CAL-120) | normalised response (BT-474) | normalised response (MCF-10A) | normalised response (MDA-MB-436) | normalised response (HCC1143) | normalised response (Hs578T) | normalised response (MDA-MB-231) | normalised response (HCC1937) | normalised response (HDQ-P1) | normalised response (CAL-51) | normalised response (MDA-MB-468) | normalised response (DU-4475) | normalised response (MFM-223) | normalised response (HCC1599) | normalised response (CAL-85-1) | normalised response (MDA-MB-453) | normalised response (BT-549)
2 | Cc1nc(C(=O)NCC(=O)O)c(O)c2ccc(Oc3ccccc3)cc12 [FG-4592] (10 nM) | 111% | 102% | 104% | 91.2% | 81.1% | 116% | 117% | 84% | 117% | 103% | 103% | 116% | 100% | 104% | 80% | 102% | 99.1% | 112%
4 | O=C1CCC(N2C(=O)c3ccccc3C2=O)C(=O)N1 (stereo unspecified) [Thalidomide] (10 nM) | 102% | 97.8% | 101% | 101% | 94.2% | 90.7% | 126% | 82.9% | 108% | 96.3% | 30.7% | 138% | 94.4% | 101% | 103% | 101% | 96% | 98.9%
5 | CC(=O)O[C@H]1C(=O)[C@@]2(C)[C@H]([C@H](OC(=O)c3ccccc3)[C@]3(O)C[C@H](OC(=O)[C@H](O)[C@@H](NC(=O)c4ccccc4)c4ccccc4)C(C)=C1C3(C)C)[C@]1(OC(C)=O)CO[C@@H]1C[C@@H]2O [Paclitaxel] (1 nM) | 87.7% | 96.3% | 101% | 99.2% | 101% | 106% | 111% | 91.5% | 100% |  | 106% | 64.3% | 92.8% | 96.7% | 90.5% | 99.2% | 96.3% | 94.8%
6 | CC1(C)CCC(CN2CCN(c3ccc(C(=O)NS(=O)(=O)c4ccc(NCC5CCOCC5)c([N+](=O)[O-])c4)c(Oc4cnc5[nH]ccc5c4)c3)CC2)=C(c2ccc(Cl)cc2)C1 [ABT-199] (10 nM) | 81.3% | 101% | 91.7% | 90% | 95.8% | 113% | 117% | 87.1% | 106% | 106% | 92.5% | 56.8% | 95.4% | 98.7% | 90.5% | 107% | 83.5% | 103%
9 | CC(O)(CS(=O)(=O)c1ccc(F)cc1)C(=O)Nc1ccc(C#N)c(C(F)(F)F)c1 (stereo unspecified) [Bicalutamide] (10 nM) | 87.9% | 103% | 103% |  | 83.5% | 116% | 93.6% | 97% | 108% | 117% | 103% | 64.3% | 113% | 89% | 111% | 100% | 107% | 81.8%
10 | CCN(CC)CCOc1ccc(C(=C(Cl)c2ccccc2)c2ccccc2)cc1 [Clomifene] (10 nM) | 103% | 101% | 102% | 109% | 61.8% | 99.6% | 112% | 98.7% | 116% | 97.7% | 117% | 112% | 99.6% | 101% | 89.7% | 106% | 97.8% | 99.3%
11 | Oc1ncc(N(CCCl)CCCl)c(O)n1 [Uracil mustard] (10 nM) | 109% | 103% | 105% | 92.3% | 108% | 116% | 112% | 64.3% | 118% | 73.1% | 97% | 102% | 97.5% | 106% | 107% | 112% | 97.5% | 106%
